From PubChem BioAssay AID1487 (National Center for Advancing Translational Sciences (NCATS), 2009)
About 25 (0.01%) of roughly 200,000 compounds were called active. The shares of active, inactive and inconclusive entries below differ from those in the screen. The call rests on the fitted dose curve; in most records, active means well fitted inhibition curve with a large enough effect in the signal ratio, with a control signal flat (not every such curve was filed as active); inconclusive means small, poorly fitted or top-dose-only effect, or effect the other way, or a change in a side signal; inactive means flat fitted curve, though single readings scatter; the % refers to the signal ratio. Potencies beside an inconclusive call are fits to weak or partial responses and may not hold up.

Assay: qHTS Assay for Modulators of Lamin A Splicing
Conditions: HeLa LMNA splicing GFP/RFP minigene ratio, 48 h; ratio change, negative = inhibition: at 46.1 µM (top of the series) unless noted
Summary of the method: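 Read-out is the ratio of GFP to DsRed2 object intensity, acquired by 488 nm laser-scanning cytometry on HeLa lamin A-EGFP minigene reporter cells. Compound incubation 48 hrs at 37 °C in Opti-MEM with 2% FBS; DMSO 0.5% final.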
On the % scale 0 is the no-effect control and ±100 the full control effect; potency means the concentration at half of the fitted maximal effect.

**Q.** For COC(=O)c1ccc(O)cc1, which “ratio change, negative = inhibition” value is on record?
**A.** The value was inactive: 10.4%.

**Q.** Which ratio change, negative = inhibition does the source give for CCOc1cccc2sc(N(CCN(CC)CC)C(=O)c3ccco3)nc12 here?
**A.** Its ratio change, negative = inhibition is inconclusive: -9.77% [at 46 µM].

**Q.** With CC(C)(C)OC(=O)N1CCC(c2c(C(=O)N3CCN(C(=O)c4ccco4)CC3)cnn2-c2ccccc2)CC1 as the molecule, how does the “ratio change, negative = inhibition” value read?
**A.** Its value is inactive: 3.2% [at 46 µM].

**Q.** With Cc1ccc2nc(-c3ccc(NC(=S)NC(=O)C(C)C)cc3)sc2c1 as the molecule, how does the ratio change, negative = inhibition read?
**A.** Its ratio change, negative = inhibition is inconclusive: 6.41%.

**Q.** Which “ratio change, negative = inhibition” value does the source give for COc1ccc(CCNC(=O)c2ccc(CNS(=O)(=O)c3ccccc3)cc2)cc1OC here?
**A.** Its value is inactive: -12.5%.

**Q.** Which Potency does the source give for Cc1ccc(-n2[nH]c(C)c(/C=N/N3C(=O)c4cccc5cccc(c45)C3=O)c2=O)cc1 here?
**A.** The Potency was inconclusive: 20 µM [inhibitor, single point].

**Q.** For NS(=O)(=O)c1ccc(N2CCCC2=O)c([N+](=O)[O-])c1, which “ratio change, negative = inhibition” value is on record?
**A.** Its value is inactive: -1.21% [at 46 µM].

**Q.** Which ratio change, negative = inhibition does the source give for CCOC(=O)c1ccc(NC(=O)CN2C(=O)NC3(CCC(C)CC3)C2=O)cc1 (configuration not stated) here?
**A.** The ratio change, negative = inhibition was inconclusive: -23.7% [at 46 µM].

**Q.** With O=C1C(Cc2c[nH]c3ccccc23)NC(=S)N1Cc1ccccc1 (configuration not stated) as the molecule, how does the ratio change, negative = inhibition read?
**A.** Its ratio change, negative = inhibition is inconclusive: 7% [at 46 µM].

**Q.** Which ratio change, negative = inhibition does the source give for CC1=C(C(=O)Nc2ccccc2)C(c2ccc(C)o2)n2c(s/c(=C\c3ccco3)c2=O)=N1 (configuration not stated) here?
**A.** Its ratio change, negative = inhibition is inconclusive: 32.8%.

**Q.** With Cc1cc(NC(=O)Nc2cccc([N+](=O)[O-])c2)no1 as the molecule, how does the ratio change, negative = inhibition read?
**A.** Its ratio change, negative = inhibition is inconclusive: -12.2% [at 46 µM].

**Q.** With CC1=CS(=O)(=O)CC1Sc1nc(C)n[nH]1 (configuration not stated) as the molecule, how does the “ratio change, negative = inhibition” value read?
**A.** The value was inactive: -4.36% [at 46 µM].

**Q.** For O=C(COc1ccccc1)Nc1ccc2c(c1)C(=O)N(CC1CCCO1)C2=O (configuration not stated), which ratio change, negative = inhibition is on record?
**A.** Its ratio change, negative = inhibition is inconclusive: 28.3% [at 46 µM].

**Q.** For COc1ccc(C(=O)O/N=C(\N)Cc2ccc(Cl)c(Cl)c2)cc1OC, which Potency is on record?
**A.** Its Potency is inconclusive: 22.4 µM [cytotoxic, single point].

**Q.** Which “ratio change, negative = inhibition” value does the source give for O=C(NCc1ccccc1)c1cnc(N2CCCCC2)c2ccccc12 here?
**A.** The value was inactive: -4.36% [at 46 µM].

**Q.** Which Potency does the source give for Cc1cc(C)n(Cc2ccc(NC(=O)c3nn(C)cc3[N+](=O)[O-])cc2)n1 here?
**A.** Its Potency is inconclusive: 12.6 µM [inhibitor, partial curve].

**Q.** For COc1ccc(NC(=O)c2ccc(Cl)c(S(=O)(=O)N3CCc4ccccc4C3)c2)cn1, which ratio change, negative = inhibition is on record?
**A.** The ratio change, negative = inhibition was inconclusive: -17.9%.

**Q.** With CCOc1cccc(C(=O)Nc2nnc(-c3ccco3)s2)c1 as the molecule, how does the “ratio change, negative = inhibition” value read?
**A.** Its value is inactive: 2.52%.

**Q.** For CCN(c1cccc(C)c1)c1ncnc2c1cnn2-c1cccc(Cl)c1, which ratio change, negative = inhibition is on record?
**A.** Its ratio change, negative = inhibition is inconclusive: -30.7% [at 46 µM].

**Q.** With COc1cc(OC)c(N(C)C(=O)c2sc3nc4n(c(=O)c3c2C)CCCC4)cc1Cl as the molecule, how does the “ratio change, negative = inhibition” value read?
**A.** The value was inactive: -4.98% [at 46 µM].

**Q.** For Oc1ccc(N=Cc2ccc(OCc3ccccc3)cc2)cc1, which ratio change, negative = inhibition is on record?
**A.** The ratio change, negative = inhibition was inconclusive: 16.5% [at 46 µM].

**Q.** For CN1CCC(N(C)C(=S)NCCc2ccccc2)CC1, which ratio change, negative = inhibition is on record?
**A.** Its ratio change, negative = inhibition is inconclusive: 19.1% [at 46 µM].
